This is an account of results in PubChem BioAssay AID330 (DTP/NCI, 2004).

The list does not hold the whole screen: it gathers tests that were run many times, whatever their T/C, doses with no T/C, and many T/C values between a quarter and a half above the control. Further doses and runs are listed elsewhere. T/C is the treated group as % of the vehicle group. Some entries give survivors of the animals treated and no T/C: the source holds a T/C of zero for them, seemingly a mark for toxic or unscored doses. Some survivor counts are full or nearly so, which does not show that the dose was tolerated: the source hardly ever lists a survival T/C far under the control, and the zero likely stands for such cases as well. Survivors were counted at the toxicity check, usually on the fifth day, unless a day is given; later deaths do not show. Schedule codes are those of the source, taken here to give the interval after Q, in days (D) or hours (H), and the number of doses after X. Some entries were tested several times; the values are given in rising order. For survival time, this PubChem deposit counts one and a half times the control or more as active, and values a quarter to a half above the control carry no call in these data; other NCI protocols may use other cut-offs.

The test deals with P388 leukemia ip, CD2F1 mice, survival T/C. Description: NCI In Vivo Anticancer Drug Screen. Data for tumor model P388 Leukemia (intraperitoneal) in CD2F1 (CDF1) mice. Conditions: T/C endpoint: median survival time, higher T/C = longer survival.
Where [1] appears, read: dose: 12.5 mg/kg/injection, schedule: Q01DX009 (ip), vehicle: Klucel (hydroxypropylcellulose) (HPC).
[2] abbreviates: dose: 25.0 mg/kg/injection, schedule: Q01DX009 (ip), vehicle: Klucel (hydroxypropylcellulose) (HPC).
[3] abbreviates: dose: 50.0 mg/kg/injection, schedule: Q01DX009 (ip), vehicle: Klucel (hydroxypropylcellulose) (HPC).
[4] abbreviates: dose: 100.0 mg/kg/injection, schedule: Q01DX009 (ip), vehicle: Klucel (hydroxypropylcellulose) (HPC).
Where [5] appears, read: dose: 200.0 mg/kg/injection, schedule: Q01DX009 (ip), vehicle: Klucel (hydroxypropylcellulose) (HPC).
The mark [6] stands for this setting: dose: 120.0 mg/kg/injection, schedule: Q01DX005 (ip), vehicle: saline with Tween-80.
[7] abbreviates: dose: 240.0 mg/kg/injection, schedule: Q01DX005 (ip), vehicle: saline with Tween-80.
Setting [8] is: dose: 200.0 mg/kg/injection, schedule: Q01DX009 (ip), vehicle: saline.
Where [9] appears, read: dose: 50.0 mg/kg/injection, schedule: Q01DX005 (ip), vehicle: Klucel (hydroxypropylcellulose) (HPC).
[10] abbreviates: dose: 100.0 mg/kg/injection, schedule: Q01DX005 (ip), vehicle: Klucel (hydroxypropylcellulose) (HPC).
The mark [11] stands for this setting: dose: 200.0 mg/kg/injection, schedule: Q01DX005 (ip), vehicle: Klucel (hydroxypropylcellulose) (HPC).
[12] abbreviates: dose: 100.0 mg/kg/injection, schedule: Q04DX003 (ip), vehicle: saline with Tween-80.
[13] abbreviates: dose: 200.0 mg/kg/injection, schedule: Q04DX003 (ip), vehicle: saline with Tween-80.
[14] abbreviates: dose: 400.0 mg/kg/injection, schedule: Q04DX003 (ip), vehicle: saline with Tween-80.

As to `CNC1C(O)C2Oc3c(cc(O)c4c3C(=O)c3cc5c(c(O)c3C4=O)C(OC)CC(C)(O)C5)C(C)(O2)C1O` (configuration not stated), the survivor count is on record as 6 of 6 (dose: 5.0 mg/kg/injection, schedule: Q01DX009 (ip), vehicle: saline) and 6 of 6 (dose: 10.0 mg/kg/injection, schedule: Q01DX009 (ip), vehicle: saline).

For the molecule `Cc1cc(C)c(CCl)c(C)c1CCl`, the T/C reads like this: (dose: 6.25 mg/kg/injection, schedule: Q01DX009 (ip), vehicle: Klucel (hydroxypropylcellulose) (HPC)) 132 % of control; under setting [1], 133 and 139 % of control; under setting [2], 138 % of control; under setting [3], 125 % of control. Further, the survivor count reads like this: under setting [3], 2 of 3 and 5 of 6; under setting [4], 0 of 3; under setting [5], 0 of 3 and 6 of 6.

For `Nc1nc2c(=O)[nH]c(=O)[nH]c2n1C1OC(CO)C(O)C1O` (configuration not stated), the survivor count by setting is: under setting [6], 6 of 6; under setting [7], 2 of 6.

As for `COC1=CC(=O)N(C(=O)C2CSC(C(CO)NC(=O)c3csc(/C=N/O)n3)=N2)C1` (configuration not stated), the T/C reads like this: under setting [4], 140 % of control; under setting [5], 136 % of control; (dose: 400.0 mg/kg/injection, schedule: Q01DX009 (ip), vehicle: Klucel (hydroxypropylcellulose) (HPC)) 141 % of control.

`CCCCCCCCCCCCCCN1CCOCC1`: the survivor count reads like this: (dose: 100.0 mg/kg/injection, schedule: Q01DX009 (ip), vehicle: saline) 2 of 6; under setting [8], 0 of 6.

For `COc1ccccc1Cc1c(OC)cc(OC)c(C(=O)CCc2ccccc2)c1O`, the T/C (dose: 14.0 mg/kg/injection, schedule: Q01DX009 (ip), vehicle: other) was 127 % of control.

As for `O=c1c(O)c(-c2cc(O)c(O)c(O)c2)oc2cc(O)cc(O)c12`, the survivor count under setting [1] is given as 1 of 6; the survivor count under setting [2] is on record as 0 of 6; the survivor count under setting [3] is 0 of 6; the survivor count (dose: 75.0 mg/kg/injection, schedule: Q01DX009 (ip), vehicle: Klucel (hydroxypropylcellulose) (HPC)) is listed as 0 of 6. For the same molecule, the T/C (dose: 25.0 mg/kg/injection, schedule: Q01DX009 (ip), vehicle: other) was 135 % of control; the T/C under setting [3] was 130 % of control; the T/C (dose: 50.0 mg/kg/injection, schedule: Q01DX009 (ip), vehicle: other) was 135 % of control.

On to `N=c1ccccn1CCO`, for which the survivor count (dose: 240.0 mg/kg/injection, schedule: Q01DX005 (ip), vehicle: saline) is listed as 3 of 6.

For `COc1cc(C2c3cc4c(cc3OC(O)C2C)OCO4)cc(OC)c1OC` (configuration not stated), the T/C under setting [6] was 125 % of control. Moreover, the survivor count under setting [7] is on record as 6 of 6.

As to `O=C(O)C1CSCN1` (configuration not stated), the survivor count was 5 of 6 (dose: 100.0 mg/kg/injection, schedule: Q01DX009 (ip), vehicle: water) and 2 of 6 (dose: 200.0 mg/kg/injection, schedule: Q01DX009 (ip), vehicle: water).

Turning to `COc1ccc2nc(C)c3c(c2c1)C(=O)N(CCCN1CCN(CCCN2C(=O)c4c(C)nc5ccc(OC)cc5c4C2=O)CC1)C3=O`, the survivor count under setting [9] is 6 of 6, the survivor count under setting [10] was 6 of 6 and the survivor count under setting [11] is 6 of 6.

As to `N#Cc1[nH]nc2nc[nH]c(=O)c12`, under “dose: 400.0 mg/kg/injection, schedule: Q04DX002 (ip), vehicle: water”, the survivor count is 1 of 6.

Consider `N#C/C(=C\c1ccco1)C(=O)c1ccco1`, for which the survivor count was 6 of 6 (dose: 100.0 mg/kg/injection, schedule: Q01DX009 (ip), vehicle: saline with Tween-80) and 6 of 6 (dose: 200.0 mg/kg/injection, schedule: Q01DX009 (ip), vehicle: saline with Tween-80).

Turning to `[C-]#Cc1ccccc1.[C-]#Cc1ccccc1.[Cu+2]`, the survivor count under setting [12] was 1 of 6, the survivor count under setting [13] is 1 of 6 and the survivor count under setting [14] is reported as 0 of 6.

Consider `O=[N+]([O-])c1ccc([O-])c([I+]c2ccccc2)c1`, for which the survivor count by setting is: under setting [4], 6 of 6; under setting [5], 0 of 6.

Consider `CC(C)(C)C(=O)CP(=O)(O)O` (tested in a mixture with another compound), for which the survivor count under setting [8] is 0 of 6.

With `CC(Br)C(=O)Nc1ncc([N+](=O)[O-])s1` (configuration not stated), the survivor count (dose: 50.0 mg/kg/injection, schedule: Q01DX009 (ip), vehicle: saline) is listed as 6 of 6.

With `C[N+]1(CC2CC2)C2CC(OC(=O)C(CO)c3ccccc3)CC1C1OC12` (configuration not stated), under setting [8], the survivor count is reported as 0 of 6.

For `CCN(CC)CCOc1ccc(C(C)=O)cc1`, under “dose: 200.0 mg/kg/injection, schedule: Q01DX005 (ip), vehicle: saline with Tween-80”, the survivor count is 0 of 6.

For `CC(C)(C)OC(=O)NCC(=O)NC(CSC(c1ccccc1)c1ccccc1)C(=O)NCC(=O)O` (configuration not stated), the survivor count under setting [11] was 5 of 6.

As for `CCCCN=C(N)N/N=C(\C)c1ccc(-c2ccccc2)cc1`, the survivor count is recorded as 0 of 6 (dose: 25.0 mg/kg/injection, schedule: Q04DX002 (ip), vehicle: saline with Tween-80); 0 of 6 (dose: 50.0 mg/kg/injection, schedule: Q04DX002 (ip), vehicle: saline with Tween-80); 0 of 6 (dose: 100.0 mg/kg/injection, schedule: Q04DX002 (ip), vehicle: saline with Tween-80).

On to `OCc1c(CO)c(-c2ccc(Cl)cc2)n2c1CCC2`, for which the T/C (dose: 50.0 mg/kg/injection, schedule: Q01DX005 (ip), vehicle: distilled water + Tween-80) is 131 % of control; the T/C (dose: 100.0 mg/kg/injection, schedule: Q01DX005 (ip), vehicle: distilled water + Tween-80) is 136 % of control; the T/C (dose: 200.0 mg/kg/injection, schedule: Q01DX005 (ip), vehicle: distilled water + Tween-80) is 145 % of control.

For the molecule `COc1ccc(CSC(=S)Nc2ccc(C)c(Br)c2)cc1`, for the setting “dose: 50.0 mg/kg/injection, schedule: Q01DX009 (ip), vehicle: suspension in saline”, the survivor count is reported as 5 of 6.

For the molecule `N=C(N)c1ccc(Nc2ccc(-c3cc4ccc(C(=N)N)cc4[nH]3)cc2)cc1`, under “dose: 3.75 mg/kg/injection, schedule: Q01DX005 (ip), vehicle: Klucel (hydroxypropylcellulose) (HPC)”, the T/C is 126 % of control. Besides, the survivor count (dose: 30.0 mg/kg/injection, schedule: Q01DX005 (ip), vehicle: Klucel (hydroxypropylcellulose) (HPC)) is 6 of 6; the survivor count (dose: 60.0 mg/kg/injection, schedule: Q01DX005 (ip), vehicle: Klucel (hydroxypropylcellulose) (HPC)) is given as 3 of 6; the survivor count (dose: 120.0 mg/kg/injection, schedule: Q01DX005 (ip), vehicle: Klucel (hydroxypropylcellulose) (HPC)) was 0 of 6; the survivor count (dose: 240.0 mg/kg/injection, schedule: Q01DX005 (ip), vehicle: Klucel (hydroxypropylcellulose) (HPC)) is on record as 0 of 6.

Consider `Cc1cccc(-c2cc3cccnc3nc2NN=O)c1C`, for which the T/C was 127 % of control (dose: 12.5 mg/kg/injection, schedule: Q01DX009 (ip), vehicle: water); 127 and 128 % of control (dose: 25.0 mg/kg/injection, schedule: Q01DX009 (ip), vehicle: water).

With `COC(=O)C(Cc1ccc(N(CCCl)CCCl)cc1)N=NNc1nc[nH]c1C(N)=O` (configuration not stated), the survivor count under setting [12] is listed as 6 of 6, the survivor count under setting [13] was 5 of 6 and the survivor count under setting [14] is 0 of 6.

In the case of `NC(=O)C1C(=O)NC(=O)C1=O` (configuration not stated), the survivor count reads like this: under setting [6], 1 of 6; under setting [7], 0 of 6.

In the case of `CCN(CC)CCOC(=O)c1c[nH]c2ccccc12`, the survivor count runs as follows: under setting [9], 3 of 6; under setting [10], 6 of 6; under setting [11], 3 of 6 and 5 of 6.
